Measured values from US8501781B2 (priority 2009, dated 2013).
Some of these results come from one statement about several compounds together.

How the values were obtained:
[1] = tested on: Phytophthora infestans; assay type: in vivo; settings: tomato plants, protective, active compound concentration 500 ppm, evaluation 7 days after inoculation
[2] = tested on: Plasmopara viticola; assay: Plasmopara test (grapevine)/protective; assay type: in vivo; settings: protective, active compound concentration 100 ppm, evaluation 6 days after inoculation

Row | SMILES | efficacy [1] | efficacy [2]
1 | COc1ccc(C)cc1NC(=O)N1CCC(c2nc(C(=O)OCc3c(F)cccc3F)cs2)CC1 [Example 164] | ≥ 70% | –
2 | Cc1cc(CC(=O)N2CCC(c3nc(C(=O)Oc4cccc5ccccc45)cs3)CC2)c(C)s1 [Example 25] | ≥ 70% | ≥ 70%
3 | Cc1ccc(C)c(NC(=O)N2CCC(c3nc(C(=O)OCCc4c(Cl)cccc4Cl)cs3)CC2)c1 [Example 157] | ≥ 70% | –
4 | Cc1ccc(Cl)cc1NC(=S)N1CCC(c2nc(C(=O)OCc3ccccc3Br)cs2)CC1 [Example 112] | ≥ 70% | –
5 | COc1ccc(C)cc1NC(=O)N1CCC(c2nc(C(=O)OCc3c(F)cccc3Cl)cs2)CC1 [Example 162] | ≥ 70% | –
6 | Cc1ccc(C)c(NC(=O)N2CCC(c3nc(C(=O)OCc4c(F)cccc4Br)cs3)CC2)c1 [Example 155] | ≥ 70% | –
7 | Cc1ccc(Cl)cc1NC(=O)N1CCC(c2nc(C(=O)OCc3c(F)cccc3F)cs2)CC1 [Example 163] | ≥ 70% | –
8 | O=C(OC1CCCc2ccccc21)c1csc(C2(F)CCN(C(=O)Cn3nc(C(F)F)cc3C(F)F)CC2)n1 (stereo not drawn) [Example 68] | ≥ 70% | ≥ 70%
9 | O=C(OCc1c(F)cccc1F)c1csc(C2(F)CCN(C(=O)Cn3nc(C(F)F)cc3C(F)F)CC2)n1 [Example 168] | ≥ 70% | –
10 | O=C(OC1CCCCC1)c1csc(C2CCN(C(=O)Nc3cc(C(F)(F)F)ccc3Cl)CC2)n1 [Example 61] | ≥ 70% | ≥ 70%
11 | Cc1cc(CC(=O)N2CCC(c3nc(C(=O)OC4CCCCC4)cs3)CC2)c(C)s1 [Example 20] | ≥ 70% | ≥ 70%
12 | Cc1ccc(C)c(NC(=O)N2CCC(c3nc(C(=O)OC(C)c4c(Cl)cccc4Cl)cs3)CC2)c1 (stereo not drawn) [Example 156] | ≥ 70% | –
13 | Cc1ccc(C)c(NC(=O)N2CCC(c3nc(C(=O)OCc4ccccc4Cl)cs3)CC2)c1 [Example 135] | ≥ 70% | –
14 | Cc1cc(C(F)(F)F)nn1CC(=O)N1CCN(c2nc(C(=O)OC(C)C3CCCCC3)cs2)CC1 (stereo not drawn) [Example 54] | ≥ 70% | ≥ 70%
15 | COc1ccc(C)cc1NC(=O)N1CCC(F)(c2nc(C(=O)OCc3c(F)cccc3F)cs2)CC1 [Example 173] | ≥ 70% | –
16 | COc1cccc(F)c1OC(=O)c1csc(C2CCN(C(=O)Nc3cc(C)ccc3C)CC2)n1 [Example 145] | ≥ 70% | –
17 | Cc1ccc(Cl)cc1NC(=O)N1CCC(c2nc(C(=O)OC3CCCCC3)cs2)CC1 [Example 72] | ≥ 70% | ≥ 70%
18 | Cc1cc(C(F)(F)F)nn1CC(=O)N1CCN(c2nc(C(=O)OCc3c(F)cccc3F)cs2)CC1 [Example 51] | ≥ 70% | ≥ 70%
19 | Cc1cc(C(F)(F)F)nn1CC(=O)N1CCC(F)(c2nc(C(=O)O[C@@H]3CCCc4ccccc43)cs2)CC1 [Example 127] | ≥ 70% | –
20 | Cc1ccc(C)c(NC(=O)N2CCC(c3nc(C(=O)OCc4c(Cl)cccc4Cl)cs3)CC2)c1 [Example 137] | ≥ 70% | –
21 | O=C(OC1CCCCC1)c1csc(C2CCN(C(=O)Cc3cc(C(F)(F)F)ccc3Cl)CC2)n1 [Example 12] | ≥ 70% | ≥ 70%
22 | CCCCCCC(=O)N1CCC(c2nc(C(=O)OC3CCCCC3)cs2)CC1 [Example 58] | ≥ 70% | –
23 | Cc1ccc(C)c(NC(=O)N2CCC(c3nc(C(=O)O[C@@H]4CCCC[C@H]4c4ccccc4)cs3)CC2)c1 [Example 122] | ≥ 70% | –
24 | O=C(OC1CCCCC1)c1csc(C2CCN(C(=O)Cc3cccc(C(F)(F)F)c3)CC2)n1 [Example 2] | ≥ 70% | –

Row | SMILES | efficacy [1] | efficacy [2]
25 | O=C(OC1CCCCC1)c1csc(C2CCN(C(=O)Cc3cc(Cl)ccc3C(F)(F)F)CC2)n1 [Example 18] | ≥ 70% | ≥ 70%
26 | Cc1ccc(C)c(NC(=O)N2CCC(c3nc(C(=O)OCc4ccccc4Br)cs3)CC2)c1 [Example 91] | ≥ 70% | –
27 | Cc1ccc(C)c(NC(=O)N2CCC(F)(c3nc(C(=O)OCc4c(F)cccc4F)cs3)CC2)c1 [Example 171] | ≥ 70% | –
28 | O=C(OCc1ccccc1Br)c1csc(C2CCN(C(=O)Nc3cc(C(F)(F)F)ccc3F)CC2)n1 [Example 111] | ≥ 70% | –
29 | O=C(OC1CCCCC1)c1csc(C2(F)CCN(C(=O)Cn3nc(C(F)F)cc3C(F)F)CC2)n1 [Example 69] | – | ≥ 70%
30 | Cc1ccc(Br)cc1CC(=O)N1CCC(c2nc(C(=O)OC3CCCCC3)cs2)CC1 [Example 17] | ≥ 70% | ≥ 70%
31 | Cc1ccc(C)c(NC(=S)N2CCC(c3nc(C(=O)OC4CCCCC4)cs3)CC2)c1 [Example 63] | ≥ 70% | ≥ 70%
32 | Cc1ccc(C)c(NC(=O)N2CCC(c3nc(C(=O)Oc4c(C)cccc4Cl)cs3)CC2)c1 [Example 143] | ≥ 70% | –
33 | Cc1cc(C(F)(F)F)nn1CC(=O)N1CCN(c2nc(C(=O)SC3CCCCC3)cs2)CC1 [Example 34] | ≥ 70% | –
34 | COc1ccc(C)cc1NC(=O)N1CCC(F)(c2nc(C(=O)OC3CCCCC3)cs2)CC1 [Example 169] | ≥ 70% | –
35 | Cc1ccc(C)c(NC(=O)N2CCC(c3nc(C(=O)Oc4c(F)cccc4Cl)cs3)CC2)c1 [Example 149] | ≥ 70% | –
36 | Cc1ccc(C)c(NC(=O)N2CCC(c3nc(C(=O)O[C@H]4CCCC[C@@H]4c4ccccc4)cs3)CC2)c1 [Example 123] | ≥ 70% | –
37 | Cc1ccc(C)c(NC(=O)N2CCC(c3nc(C(=O)Oc4c(F)cccc4Br)cs3)CC2)c1 [Example 152] | ≥ 70% | –
38 | Cc1ccc(C)c(NC(=O)N2CCC(c3nc(C(=O)Oc4c(F)cccc4F)cs3)CC2)c1 [Example 150] | ≥ 70% | –
39 | Cc1noc(C)c1NC(=S)N1CCC(c2nc(C(=O)OC3CCCCC3)cs2)CC1 [Example 73] | ≥ 70% | –
40 | Cc1cc(C)cc(CC(=O)N2CCC(c3nc(C(=O)OC4CCCCC4)cs3)CC2)c1 [Example 65] | ≥ 70% | –
41 | Cc1ccc(C)c(NC(=O)N2CCC(c3nc(C(=O)OCc4c(F)cccc4F)cs3)CC2)c1 [Example 121] | ≥ 70% | –
42 | Cc1ccc(F)cc1NC(=O)N1CCC(c2nc(C(=O)OC3CCCc4ccccc43)cs2)CC1 (stereo not drawn) [Example 79] | ≥ 70% | –
43 | Cc1ccc(C)c(NC(=O)N2CCC(c3nc(C(=O)Oc4c(Cl)cccc4Cl)cs3)CC2)c1 [Example 151] | ≥ 70% | –
44 | Cc1ccc(C)c(NC(=O)N2CCC(c3nc(C(=O)Oc4c(Br)cccc4Br)cs3)CC2)c1 [Example 144] | ≥ 70% | –
45 | Cc1cc(C(F)(F)F)nn1CC(=O)N1CCN(c2nc(C(=O)Sc3ccc4ccccc4c3)cs2)CC1 [Example 45] | ≥ 70% | –
46 | Cc1ccc(Cl)cc1NC(=O)N1CCC(F)(c2nc(C(=O)OC3CCCCC3)cs2)CC1 [Example 167] | ≥ 70% | –
47 | Cc1ccc(F)cc1NC(=O)N1CCC(c2nc(C(=O)OC3CCCCC3)cs2)CC1 [Example 74] | ≥ 70% | –
48 | Cc1ccc(Cl)cc1NC(=O)N1CCC(c2nc(C(=O)OC3CCCc4ccccc43)cs2)CC1 (stereo not drawn) [Example 125] | ≥ 70% | –

Row | SMILES | efficacy [1] | efficacy [2]
49 | Cc1ccc(C)c(NC(=O)N2CCC(F)(c3nc(C(=O)OC4CCCCC4)cs3)CC2)c1 [Example 172] | ≥ 70% | –
50 | COc1ccc(COC(=O)c2csc(N3CCN(C(=O)Cn4nc(C(F)(F)F)cc4C)CC3)n2)cc1 [Example 35] | ≥ 70% | –
51 | Cc1cc(C(F)(F)F)nn1CC(=O)N1CCN(c2nc(C(=O)OC(C)c3cc(Cl)ccc3Cl)cs2)CC1 (stereo not drawn) [Example 31] | ≥ 70% | –
52 | O=C(OC1CCCCC1)c1csc(C2CCN(C(=O)C(=O)c3cccs3)CC2)n1 [Example 55] | ≥ 70% | –
53 | Cc1ccc(C)c(NC(=O)N2CCC(c3nc(C(=O)OCc4c(F)cccc4Cl)cs3)CC2)c1 [Example 120] | ≥ 70% | –
54 | Cc1ccc(C)c(NC(=O)N2CCC(c3nc(C(=O)OC(C)c4ccccc4F)cs3)CC2)c1 (stereo not drawn) [Example 153] | ≥ 70% | –
55 | COc1cccc(Br)c1OC(=O)c1csc(C2CCN(C(=O)Nc3cc(C)ccc3C)CC2)n1 [Example 142] | ≥ 70% | –
56 | COc1cccc(F)c1C(C)OC(=O)c1csc(C2CCN(C(=O)Nc3cc(C)ccc3C)CC2)n1 (stereo not drawn) [Example 138] | ≥ 70% | –
57 | Cc1cc(C(F)(F)F)nn1CC(=O)N1CCC(F)(c2nc(C(=O)OC3CCCCC3)cs2)CC1 [Example 170] | ≥ 70% | –
58 | Cc1ccc(C)c(NC(=O)N2CCC(c3nc(C(=O)Oc4c(C)cccc4Br)cs3)CC2)c1 [Example 141] | ≥ 70% | –
59 | Cc1ccc(Cl)cc1NC(=O)N1CCC(c2nc(C(=O)OCc3c(F)cccc3Cl)cs2)CC1 [Example 161] | ≥ 70% | –
60 | Cc1ccc(F)c(NC(=O)N2CCC(c3nc(C(=O)OC4CCCc5ccccc54)cs3)CC2)c1 (stereo not drawn) [Example 80] | ≥ 70% | –
61 | Cc1cc(C(F)(F)F)nn1CC(=O)N1CCN(c2nc(C(=O)OC3CCCC(C(F)(F)F)C3)cs2)CC1 (stereo not drawn) [Example 32] | ≥ 70% | –
62 | Cc1cc(C(F)(F)F)nn1CC(=O)N1CCN(c2nc(C(=O)OCc3ccc(Cl)cc3Cl)cs2)CC1 [Example 44] | ≥ 70% | –
63 | Cc1cc(C(F)(F)F)nn1CC(=O)N1CCN(c2nc(C(=O)SCc3ccccc3Cl)cs2)CC1 [Example 49] | ≥ 70% | –
64 | O=C(OC1CCCCC1)c1csc(C2CCN(C(=O)CCCC(F)(F)C(F)(F)F)CC2)n1 [Example 57] | ≥ 70% | –
65 | Cc1ccc(C)c(CC(=O)N2CCC(c3nc(C(=O)OC4CCCc5ccccc54)cs3)CC2)c1 (stereo not drawn) [Example 96] | ≥ 70% | –
66 | Cc1ccc(C)c(NC(=O)N2CCC(c3nc(C(=O)OC4CCCc5ccccc54)cs3)CC2)c1 (stereo not drawn) [Example 78] | ≥ 70% | –
67 | Cc1cc(C(F)(F)F)nn1CC(=O)N1CCN(c2nc(C(=O)Oc3cccc4cccnc34)cs2)CC1 [Example 36] | ≥ 70% | –
68 | Cc1nc(CC(=O)N2CCC(c3nc(C(=O)OC4CCCCC4)cs3)CC2)c(C)s1 [Example 27] | ≥ 70% | –
69 | Cc1ccc(C)c(NC(=O)N2CCC(c3nc(C(=O)OCc4ccccc4F)cs3)CC2)c1 [Example 140] | ≥ 70% | –
70 | Cc1ccc(C)c(NC(=O)N2CCC(F)(c3nc(C(=O)O[C@@H]4CCCc5ccccc54)cs3)CC2)c1 [Example 126] | ≥ 70% | –
